Holding throughout (test): level (log10 ratio to DMSO vehicle control); higher = higher biomarker level / cell amount than vehicle control
Compound in experiment [1]: C=CC(=O)OCC(F)(F)C(F)(F)C(F)(F)C(F)(F)C(F)(F)C(F)(F)C(F)(F)C(F)F [1H,1H,9H-Perfluorononyl acrylate]
The conditions noted are these: 2200 nM; in DMSO. Here is the method:
(§1)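 BioMAP Diversity Plus panel of 12 human primary cell co-culture systems (3C, 4H, LPS, SAg, BT, BF4T, BE3C, CASM3C, HDF3CGF, KF3CT, MyoF, Mphg). Compounds were added 1 h before stimulation and left for 24 h (MyoF 48 h; BT 72 h for soluble read-outs or 6 d for IgG). Biomarkers were read by ELISA, cytotoxicity by SRB, PBMC viability and proliferation by Alamar Blue. Each well value was divided by the mean of 8 DMSO control wells on the same plate and log10 transformed; duplicate blinded samples were tested at 4 concentrations.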

Compound in experiment [2]: CCOC(=O)CC(=O)C(F)(F)C(F)(F)F [Ethyl pentafluoropropionyl acetate]
The settings on record: 2200 nM; in DMSO. Here is the method:
as §1

Compound in experiment [3]: FC(F)(F)C(F)(F)C(F)(F)C(F)(F)C(F)(F)C(F)(F)C(F)(F)C(F)(F)CCS [2-(Perfluorooctyl)ethanthiol]
The conditions noted are these: in DMSO. Here is the method: as §1

Compound in experiment [4]: N=C(N)C(F)(F)C(F)(F)C(F)(F)C(F)(F)C(F)(F)C(F)(F)C(F)(F)F [Perfluorooctanamidine]
The settings on record: in DMSO. Here is the method:
as §1

Compound in experiment [5]: O=C(CC(=O)C(F)(F)C(F)(F)C(F)(F)F)c1cccs1 [(Perfluorobutyryl)-2-thenoylmethane]
The conditions noted are these: 2200 nM; in DMSO. Here is the method:
as §1

Compound in experiment [6]: O=C(O)C(F)(F)C(F)(F)C(F)(F)C(F)(F)C(F)(F)C(F)(F)C(F)(F)C(F)(F)C(F)(F)F [Perfluorodecanoic acid]
The settings on record: in DMSO. Here is the method: as §1

Compound in experiment [7]: O=C(O)C(F)(F)C(F)(F)C(F)(F)C(F)(F)C(F)(F)C(F)(F)C(F)(F)C(F)(F)F [Perfluorononanoic acid]
The settings on record: 2200 nM; in DMSO. Here is the method: as §1

Compound in experiment [8]: O=C(O)C(F)(F)C(F)(F)C(F)(F)C(F)(F)C(F)(F)C(F)(F)C(F)(F)F [Ammonium perfluorooctanoate]
The settings on record: 2200 nM; in DMSO. Here is the method:
as §1

Compound in experiment [9]: O=C(O)C(F)(F)C(F)(F)C(F)(F)C(F)(F)C(F)(F)C(F)(F)C(F)(F)F [Perfluorooctanoic acid]
The conditions noted are these: 2200 nM; in DMSO. Here is the method:
as §1

Compound in experiment [10]: O=C(O)C(F)(F)OC(F)(F)C(F)(F)OC(F)(F)C(F)(F)OC(F)(F)C(F)(F)C(F)(F)C(F)(F)F [Perfluoro-3,6,9-trioxatridecanoic acid]
The conditions noted are these: 2200 nM; in DMSO. Here is the method: as §1

Compound in experiment [11]: O=C(O)C(F)(F)OC(F)(F)C(F)(F)OC(F)(F)F [Perfluoro-3,6-dioxaheptanoic acid]
The conditions noted are these: 2200 nM; in DMSO. Here is the method: as §1

Compound in experiment [12]: O=C(O)CCC(F)(C(F)(F)F)C(F)(F)F [4,4-bis(Trifluoromethyl)-4-fluoropropanoic acid]
The settings on record: 2200 nM; in DMSO. Here is the method: as §1

Compound in experiment [13]: OCC(F)(F)C(F)(F)C(F)(F)C(F)(F)C(F)(F)C(F)(F)C(F)(F)C(F)(F)CO [1H,1H,10H,10H-Perfluorodecane-1,10-diol]
The conditions noted are these: 2200 nM; in DMSO. Here is the method:
as §1

Compound in experiment [14]: OCC(F)(F)OC(F)(F)C(F)(F)OC(F)(F)C(F)(F)OC(F)(F)CO [1H,1H,11H,11H-Perfluorotetraethylene glycol]
The conditions noted are these: 2200 nM; in DMSO. Here is the method:
as §1

± gives the standard deviation of the averaged measurements. Most values lie at the level of the controls, where differences are scatter.

With CASM3C:PAI-I, the “level (log10)” value is -0.012 ± 0.0028 in [1]; -0.0045 ± 0.023 in experiment [2]; 0.0005 ± 0.013 in experiment [3] (740 nM); -0.0145 ± 0.023 in [3] (2200 nM); 0.0115 ± 0.0078 in [4] (2200 nM); 0.0055 ± 0.012 in [4] (6700 nM). The “level (log10)” value in experiment [4] (20000 nM) was 0.0015 ± 0.0064; in [4] (60000 nM) it was 0.022; in [5], -0.0015 ± 0.005; in [6] (2200 nM), 0.0035 ± 0.0092; in [6] (6700 nM), 0.001 ± 0.0014; in experiment [6] (20000 nM), -0.0015 ± 0.005. Also, the “level (log10)” value in [7] was 0.0035 ± 0.00071; in experiment [8], -0.001 ± 0.0099; in experiment [9], 0.004 ± 0.0057; in [10], 0.002 ± 0.0099; in experiment [11], 0.0045 ± 0.0021; in experiment [12] it was 0.0025 ± 0.011. Moreover, the entries for the “level (log10)” value in experiment [13] and in [14] were -0.001 ± 0.0071 and 0.0045 ± 0.0078, respectively.

As to CASM3C:Proliferation, the “level (log10)” value in experiment [1] was 0.011 ± 0.054; in experiment [2], 0.0035 ± 0.1; in experiment [3] (740 nM), 0.0165 ± 0.022; in experiment [3] (2200 nM), 0.0075 ± 0.032; in experiment [4] (2200 nM) it was 0.0015 ± 0.0092; in experiment [4] (6700 nM), 0.0185 ± 0.0078. Further, the “level (log10)” value in experiment [4] (20000 nM) was 0.0085 ± 0.0035; in [4] (60000 nM), -0.062; in [5] it was -0.0975 ± 0.037; in experiment [6] (2200 nM) it was 0.0345 ± 0.035; in experiment [6] (6700 nM) it was 0.049 ± 0.0028; in [6] (20000 nM), 0.0205 ± 0.035. Also, the “level (log10)” value in experiment [7] was 0.026 ± 0.0099; in experiment [8] it was -0.0385 ± 0.0035; in experiment [9], -0.001 ± 0.023; in experiment [10] it was -0.0165 ± 0.013; in [11], -0.01 ± 0.051; in experiment [12] it was -0.0185 ± 0.036. In addition, the entries for the “level (log10)” value in experiment [13] and in experiment [14] were -0.0515 ± 0.029 and -0.0775 ± 0.087, respectively.

Take 4H:CD87/uPAR: the “level (log10)” value was -0.018 ± 0.023 in experiment [1]; -0.0045 ± 0.052 in [2]; -0.0185 ± 0.025 in [3] (740 nM); 0.012 ± 0.0057 in experiment [3] (2200 nM); 0.077 ± 0.02 in experiment [4] (2200 nM); 0.0455 ± 0.097 in experiment [4] (6700 nM). Further, the “level (log10)” value was 0.055 ± 0.028 in experiment [4] (20000 nM); 0.146 in experiment [4] (60000 nM); 0.024 ± 0.048 in [5]; -0.0085 ± 0.015 in experiment [6] (2200 nM); 0.0115 ± 0.021 in experiment [6] (6700 nM); 0.0135 ± 0.0092 in [6] (20000 nM). Besides, the “level (log10)” value in [7] was -0.009 ± 0.027; in experiment [8], 0.011 ± 0.05; in experiment [9], -0.0555 ± 0.029; in experiment [10], 0.0265 ± 0.04; in [11], 0.0115 ± 0.047; in experiment [12] it was 0.0325 ± 0.012. For the same test system, the “level (log10)” value in experiment [13] is -0.019 ± 0.033; in [14], -0.01 ± 0.1.

On to HDF3CGF:MMP-1, for which the “level (log10)” value in [1] was 0.004 ± 0.0028; in experiment [2], 0.039 ± 0.031; in experiment [3] (740 nM), 0.015 ± 0.016; in [3] (2200 nM), 0.0075 ± 0.011; in experiment [4] (2200 nM) it was 0.003 ± 0.0057; in [4] (6700 nM) it was -0.008 ± 0.0099. Also, the “level (log10)” value in experiment [4] (20000 nM) was 0.012 ± 0.0085; in experiment [4] (60000 nM) it was -0.008; in experiment [5] it was -0.0075 ± 0.0035; in [6] (2200 nM), -0.0105 ± 0.03; in experiment [6] (6700 nM), -0.041 ± 0.0028; in [6] (20000 nM), -0.174 ± 0.08. In addition, the “level (log10)” value in experiment [7] is -0.0205 ± 0.039; in experiment [8], 0.015 ± 0.017; in [9] it was -0.0245 ± 0.021; in [10], -0.009 ± 0.0042; in experiment [11], 0.006 ± 0.0042; in [12], -0.001 ± 0.0099. Moreover, the results for the “level (log10)” value in experiment [13] and in experiment [14] were -0.005 ± 0.0014 and 0.0235 ± 0.0021, respectively.

With CASM3C:CCL2/MCP-1, the “level (log10)” value in experiment [1] was -0.014 ± 0.0028; in [2] it was 0.0005 ± 0.022; in experiment [3] (740 nM) it was 0.007 ± 0.027; in [3] (2200 nM) it was 0.0015 ± 0.012; in [4] (2200 nM), 0.0325 ± 0.025; in experiment [4] (6700 nM) it was 0.008 ± 0.024. The “level (log10)” value came out at 0.011 ± 0.034 in [4] (20000 nM); 0.085 in [4] (60000 nM); 0.027 ± 0.0057 in experiment [5]; 0.0075 ± 0.035 in experiment [6] (2200 nM); 0.006 ± 0.02 in experiment [6] (6700 nM); 0 ± 0.0042 in [6] (20000 nM). For the same test system, the “level (log10)” value in [7] is -0.036 ± 0.052; in experiment [8] it was -0.002 ± 0.011; in [9], 0.004 ± 0.031; in [10], -0.0065 ± 0.0021; in experiment [11] it was -0.0385 ± 0.057; in experiment [12], 0.0115 ± 0.06. The “level (log10)” value in [13] was 0.0085 ± 0.025; in experiment [14], 0.018 ± 0.038.

With BF4T:SRB, the “level (log10)” value in experiment [1] was -0.0025 ± 0.0092; in experiment [2] it was 0 ± 0.0028; in [3] (740 nM) it was -0.013 ± 0.0028; in experiment [3] (2200 nM) it was -0.0175 ± 0.00071; in experiment [4] (2200 nM) it was -0.0035 ± 0.015; in experiment [4] (6700 nM), -0.009 ± 0.0071. Further, the “level (log10)” value in experiment [4] (20000 nM) is -0.0085 ± 0.0035; in experiment [4] (60000 nM), -0.004; in experiment [5], -0.013 ± 0.0085; in experiment [6] (2200 nM) it was 0.01 ± 0.011; in [6] (6700 nM) it was -0.001 ± 0.0071; in experiment [6] (20000 nM), -0.256 ± 0.0014. Besides, the “level (log10)” value in experiment [7] is 0.004 ± 0.0099; in experiment [8], 0.0025 ± 0.0078; in [9] it was -0.003 ± 0.0099; in experiment [10] it was 0.002 ± 0.0057; in experiment [11] it was -0.006 ± 0.0085; in experiment [12], 0.0185 ± 0.015. For the same test system, the “level (log10)” value in experiment [13] was -0.0055 ± 0.0064; in experiment [14], 0 ± 0.0028.
